Reference: paper PMC13647419
These are yes or no findings as the source states them, for the method shown. Some binding calls cover weakened binding; strength is not graded here.

By UniProt entry, the sequences of proteins in these tests, tags left out. Residues count along the entry.
UniProt Q01299, residues 777-1128: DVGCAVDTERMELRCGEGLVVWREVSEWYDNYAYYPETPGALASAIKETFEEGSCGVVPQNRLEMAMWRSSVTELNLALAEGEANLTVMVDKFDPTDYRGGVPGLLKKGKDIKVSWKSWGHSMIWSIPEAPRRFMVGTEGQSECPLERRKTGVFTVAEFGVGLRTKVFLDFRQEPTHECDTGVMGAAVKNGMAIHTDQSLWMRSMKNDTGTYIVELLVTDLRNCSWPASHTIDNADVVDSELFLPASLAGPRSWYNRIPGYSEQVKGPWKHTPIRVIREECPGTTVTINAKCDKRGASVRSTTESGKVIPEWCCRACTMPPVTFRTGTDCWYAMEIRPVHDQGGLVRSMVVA

Biological target: T1, recombinant human junctional adhesion molecule A (JAM-A) (human) (UniProt Q9Y624)
T1 sequence: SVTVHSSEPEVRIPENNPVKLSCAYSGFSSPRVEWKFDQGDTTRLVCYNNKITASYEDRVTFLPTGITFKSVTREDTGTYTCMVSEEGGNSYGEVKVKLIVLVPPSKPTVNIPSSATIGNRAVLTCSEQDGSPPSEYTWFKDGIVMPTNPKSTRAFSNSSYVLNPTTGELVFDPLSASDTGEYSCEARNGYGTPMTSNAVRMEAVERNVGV
Assay: ELISA; both purified

Question: For “TBEV Hypr NS1 produced in mammalian HEK293 cells (Native Antigen) (from UniProt Q01299 777-1128)”, which binding is on record?
Answer: Its binding is “binds”.
